In patent US20230149355A1, “COMPOSITIONS AND METHODS FOR MODULATING TRP CHANNEL ACTIVITY” (priority 2020, published 2023):
At least one compound was matched to its structure with a doubt left.

system: zebrafish EECs; assay: In vivo EEC activity, Tg(neurod1:CaMPARI) zebrafish; conditions: linoleate, oleate, laurate 1.66 mM, butyrate 2 mM, glucose 500 mM; vs water
From the text: CaMPARI undergoes permanent green-to-red photoconversion (PC) under 405 nm light when calcium is present. This permanent conversion records the calcium activity for all areas illuminated by PC-light. Red fluorescence intensity correlates with calcium activity during photoconversion (Fosque et al., 2015). In the Tg(neurod1:CaMPARI) zebrafish line, the CaMPARI (calcium-modulated photoactivatable ratiometric integrator) transgene is expressed under control of the −5 kb promoter cloned from the zebrafish neurod1 locus. CaMPARI mRNA is transcribed and the CaMPARI protein is expressed in cells that are able to activate the neurod1 promoter. There are multiple cell types in the zebrafish body that are sufficient to activate the neurod1 promoter, including all EECs in the intestine (Ye et al., 2019). CaMPARI protein is a calcium indicator protein that binds calcium and converts from green fluorescence to red fluorescence in the presence of UV light. This protein is engineered and described in detail in a previous publication (Fosque et al., 2015). This transgenic model was used to measure the level of intracellular calcium in EECs. Similar to neurons, it is well known that when extracellular stimulants act on various receptors on EECs, this leads to an increase of intracellular calcium either due to calcium influx through calcium channels in the plasma membrane or release of calcium stored in the ER. Through either of these pathways, increased intracellular calcium then directly triggers EECs to release hormone/neurotransmitter vesicles. To record in vivo EEC activity using the CaMPARI platform, conventionally raised Tg(neurod1:CaMPARI) zebrafish larvae were sorted at 3 dpf and maintained in Gnotobiotic Zebrafish Media (GZM) (Pham et al., 2008) with 1 larvae/mL density. At 6 dpf, for each experimental group, ˜20 larvae were transferred into 50 mL conical tubes in 2 mL GZM medium. The larvae were adjusted to the new environment for 30 mins before stimuli were added to each conical tube. […]

SMILES	Percentage of activated EECs (high red:green CaMPARI ratio)
CCCC(=O)O [butyrate]	not in response
CCCCC/C=C\C/C=C\CCCCCCCC(=O)O [linoleate]	significantly increased
CCCCCCCC/C=C\CCCCCCCC(=O)O [oleate]	significantly increased
